Assay results reported in patent US20240262917A1, “ANTIBODIES AGAINST ALK AND METHODS OF USE THEREOF” (Dana-Farber Cancer Institute, Inc., priority 2021, published 2024).

Target: ALK-del MAM2 to 654 aa (human)
Experiment: immunofluorescence on NIH3T3 cells expressing the mutant

B1: Mouse monoclonal anti-ALK 8G7 (antibody, IgG1, V domains shown)
VH: QVQLQQSGAELVRPGASVTLSCKASGYTFTDYEMHWVKQTPVHGLEWIGAIDPETGGSAYNQKFKAKAILTADRSSSTAYMELRSLTSEDSAVYYCTRTRYYGSSPAMDYWGQGTSVTVSS
VL: DIQMTQTTSSLSASLGDRVTISCSASQGIGNYLNWYQQKPDGTVKLLIYYTSSLHSGVPSRFSGSGSGTDYSLTISNLEPEDIATYYCQQYSKLPYTFGGGTKLEIK
Question: Which binding does the source give for B1 here?
Answer: Its binding is “no binding (tested: 1:100 antibody dilution)”.

These are yes or no findings as the source states them, for the method shown.
